Results: PubChem BioAssay AID248 (DTP/NCI, 2004)
The list does not hold the whole screen: it gathers tests that were run many times, whatever their T/C, doses with no T/C, and many T/C values between a quarter and a half above the control. Further doses and runs are listed elsewhere. T/C is the treated group as % of the vehicle group. Some entries give survivors of the animals treated and no T/C: the source files T/C as zero there, which appears to mark a toxic dose or a test without result, not a measured value. Some doses without a T/C left all or most animals alive at the check, yet need not have been tolerated: the source hardly ever lists a survival T/C far under the control, and the zero likely stands for such cases as well. Counts of survivors are from the toxicity check (mostly the fifth day) where no day follows; animals may have died later. Schedules are NCI's codes, taken here to give the interval after Q, in days (D) or hours (H), and the number of doses after X. Some molecules as drawn cover several salts, stereoisomers or complexes of the source; a dose is that of the sample tested. Marks such as (2×) give the number of equal values in this list. Some entries hold several experiments; the results are listed from low to high. Some schedule codes hold Z or #, which are not explained here. For survival time, this PubChem deposit counts one and a half times the control or more as active, and values a quarter to a half above the control carry no call in these data; other NCI protocols may use other cut-offs. Some T/C values carry the count of animals alive at the toxicity check (mostly the fifth day); where none is given, no animal had died by that day.

System: L1210 leukemia ip in BDF1 mice, survival T/C
Test: NCI In Vivo Anticancer Drug Screen. Data for tumor model L1210 Leukemia (intraperitoneal) in B6D2F1 (BDF1) mice
Conditions: T/C endpoint: mean survival time, higher T/C = longer survival
[1] = dose: 50.0 mg/kg/injection, schedule: Q01DX009 (ip), vehicle: saline with Tween-80
[2] = dose: 50.0 mg/kg/injection, schedule: Q01DX009 (ip), vehicle: saline
[3] = dose: 100.0 mg/kg/injection, schedule: Q04DX003 (ip), vehicle: saline with Tween-80
[4] = dose: 100.0 mg/kg/injection, schedule: Q04DX003 (ip), vehicle: saline
[5] = dose: 200.0 mg/kg/injection, schedule: Q04DX003 (ip), vehicle: saline with Tween-80
[6] = dose: 400.0 mg/kg/injection, schedule: Q01DX001 (ip), vehicle: saline
[7] = dose: 400.0 mg/kg/injection, schedule: Q04DX003 (ip), vehicle: saline with Tween-80
[8] = dose: 400.0 mg/kg/injection, schedule: Q01DX001 (ip), vehicle: Klucel (hydroxypropylcellulose) (HPC)
[9] = dose: 100.0 mg/kg/injection, schedule: Q01DX001 (ip), vehicle: Klucel (hydroxypropylcellulose) (HPC)
[10] = dose: 300.0 mg/kg/injection, schedule: Q01DX001 (ip), vehicle: saline
[11] = dose: 200.0 mg/kg/injection, schedule: Q04DX002 (ip), vehicle: Klucel (hydroxypropylcellulose) (HPC)
[12] = dose: 400.0 mg/kg/injection, schedule: Q04DX002 (ip), vehicle: Klucel (hydroxypropylcellulose) (HPC)

SMILES: CN1CCN(CCCN2c3ccccc3Sc3ccc(C(F)(F)F)cc32)CC1
- survivor count (dose: 12.5 mg/kg/injection, schedule: Q01DX009 (ip), vehicle: saline): 6 of 6
- T/C (dose: 22.0 mg/kg/injection, schedule: Q01DX009 (ip), vehicle: saline with Tween-80): 143 % of control
- survivor count (dose: 25.0 mg/kg/injection, schedule: Q01DX009 (ip), vehicle: saline): 2 of 6 and 6 of 6
- survivor count (dose: 33.0 mg/kg/injection, schedule: Q01DX009 (ip), vehicle: saline with Tween-80): 3 of 6
- T/C (dose: 37.0 mg/kg/injection, schedule: Q04DX003 (ip), vehicle: saline with Tween-80): 127 and 137 % of control
- survivor count (dose: 37.5 mg/kg/injection, schedule: Q01DX009 (ip), vehicle: saline): 3 of 6
- T/C (dose: 44.0 mg/kg/injection, schedule: Q04DX003 (ip), vehicle: saline with Tween-80): 136 % of control
- T/C [1]: 138 % of control [4 of 6 alive]
- survivor count [1]: 1 of 6
- T/C [2]: 130 % of control [4 of 6 alive]
- survivor count [2]: 2 of 6, 4 of 6, 6 of 6
- T/C (dose: 66.0 mg/kg/injection, schedule: Q04DX003 (ip), vehicle: saline with Tween-80): 142 % of control
- survivor count (dose: 75.0 mg/kg/injection, schedule: Q01DX009 (ip), vehicle: saline with Tween-80): 0 of 6
- survivor count (dose: 75.0 mg/kg/injection, schedule: Q01DX009 (ip), vehicle: saline): 1 of 6
- survivor count (dose: 100.0 mg/kg/injection, schedule: Q01DX009 (ip), vehicle: saline with Tween-80): 6 of 6
- survivor count (dose: 100.0 mg/kg/injection, schedule: Q01DX009 (ip), vehicle: saline): 0 of 6, 1 of 6, 2 of 6
- T/C [3]: 129 and 141 % of control
- survivor count [4]: 3 of 4
- survivor count (dose: 150.0 mg/kg/injection, schedule: Q01DX009 (ip), vehicle: saline): 0 of 6 (2×)
- survivor count (dose: 150.0 mg/kg/injection, schedule: Q04DX003 (ip), vehicle: saline with Tween-80): 2 of 6 and 3 of 6
- survivor count (dose: 150.0 mg/kg/injection, schedule: Q04DX003 (ip), vehicle: saline): 5 of 6 (2×)
- survivor count (dose: 200.0 mg/kg/injection, schedule: Q01DX001 (ip), vehicle: saline): 0 of 6
- survivor count [5]: 3 of 6 and 4 of 6
- survivor count (dose: 200.0 mg/kg/injection, schedule: Q04DX003 (ip), vehicle: saline): 0 of 4, 1 of 6, 2 of 6
- survivor count (dose: 225.0 mg/kg/injection, schedule: Q01DX009 (ip), vehicle: saline): 0 of 6
- survivor count (dose: 230.0 mg/kg/injection, schedule: Q04DX003 (ip), vehicle: saline): 3 of 6
- survivor count (dose: 345.0 mg/kg/injection, schedule: Q04DX003 (ip), vehicle: saline): 0 of 6
- survivor count [6]: 0 of 6
- survivor count [7]: 0 of 6 (2×)
- survivor count (dose: 400.0 mg/kg/injection, schedule: Q04DX003 (ip), vehicle: saline): 0 of 6 (2×)
- survivor count (dose: 600.0 mg/kg/injection, schedule: Q04DX003 (ip), vehicle: saline): 0 of 6

SMILES: CC(C)NC(=O)Oc1cccc(NC(=O)C(C)C)c1
- survivor count [5]: 6 of 6

SMILES: O=C(NCCCl)Nc1ccccc1
- survivor count [8]: 1 of 6
- survivor count (dose: 400.0 mg/kg/injection, schedule: Q04DX003 (ip), vehicle: Klucel (hydroxypropylcellulose) (HPC)): 2 of 6

SMILES: COc1nc(N)nc2c1nnn2C1OC(CO)C(O)C1O (stereo not drawn)
- T/C [9]: 125 % of control
- survivor count [9]: 3 of 5
- survivor count (dose: 200.0 mg/kg/injection, schedule: Q01DX001 (ip), vehicle: Klucel (hydroxypropylcellulose) (HPC)): 3 of 6
- survivor count [8]: 0 of 6

SMILES: COc1ccc(Oc2cc(CC3c4cc(OC)c(OC)cc4CCN3C)c([N+](=O)[O-])cc2OC)cc1OC (stereo not drawn)
- survivor count (dose: 200.0 mg/kg/injection, schedule: Q01DX009 (ip), vehicle: saline): 0 of 6
- survivor count (dose: 400.0 mg/kg/injection, schedule: Q01DX009 (ip), vehicle: saline): 0 of 6

SMILES: CCC(C)C1NC(=O)C(NC(=O)c2c3nc4c(C(=O)NC5C(=O)NC(C(C)CC)C(=O)N6CCCC6C(=O)N(C)CC(=O)N(C)C(C(C)C)C(=O)OC5C)cc([N+](=O)[O-])c(C)c4oc-3c(C)c(=O)c2N)C(C)OC(=O)C(C(C)C)N(C)C(=O)CN(C)C(=O)C2CCCN2C1=O (stereo not drawn)
- T/C (dose: 150.0 micrograms/kg/injection, schedule: Q01DX009 (ip), vehicle: saline + alcohol): 129 % of control
- T/C (dose: 300.0 micrograms/kg/injection, schedule: Q01DX009 (ip), vehicle: saline + alcohol): 127 % of control
- T/C (dose: 400.0 micrograms/kg/injection, schedule: Q01DX009 (ip), vehicle: saline + alcohol): 134 % of control
- T/C (dose: 800.0 micrograms/kg/injection, schedule: Q04DX003 (ip), vehicle: saline + alcohol): 130 % of control
- T/C (dose: 1200.0 micrograms/kg/injection, schedule: Q04DX003 (ip), vehicle: saline + alcohol): 137 % of control
- T/C (dose: 1600.0 micrograms/kg/injection, schedule: Q04DX003 (ip), vehicle: saline + alcohol): 134 % of control

SMILES: O=C1CCCCc2cc(O)c([N+](=O)[O-])cc21
- survivor count (dose: 200.0 mg/kg/injection, schedule: Q01DX009 (ip), vehicle: saline with Tween-80): 3 of 3

SMILES: O=C(O)c1ccc(CNCc2ccccc2)cc1
- survivor count [10]: 2 of 6

SMILES: NC(=O)c1cccc(Cl)n1
- survivor count (dose: 100.0 mg/kg/injection, schedule: Q04DX002 (ip), vehicle: Klucel (hydroxypropylcellulose) (HPC)): 1 of 3
- survivor count [11]: 0 of 3
- survivor count [12]: 0 of 3

SMILES: CC(=O)CC(=O)N(N=O)c1ccccc1C
- survivor count [6]: 2 of 4

SMILES: CCCCn1cnc2c(SC)ncnc21
- survivor count [6]: 2 of 4

SMILES: CCCCSc1n[nH]c(=O)nc1SC
- survivor count (dose: 200.0 mg/kg/injection, schedule: Q01DX001 (ip), vehicle: acetone): 3 of 6
- survivor count (dose: 400.0 mg/kg/injection, schedule: Q01DX001 (ip), vehicle: acetone): 0 of 6

SMILES: CN(C)C(N)=Nc1ccc(Cl)cc1
- survivor count (dose: 100.0 mg/kg/injection, schedule: Q01DX009 (ip), vehicle: Klucel (hydroxypropylcellulose) (HPC)): 0 of 6
- survivor count (dose: 200.0 mg/kg/injection, schedule: Q01DX009 (ip), vehicle: Klucel (hydroxypropylcellulose) (HPC)): 0 of 6
- survivor count (dose: 400.0 mg/kg/injection, schedule: Q01DX009 (ip), vehicle: Klucel (hydroxypropylcellulose) (HPC)): 0 of 6

SMILES: CCCCc1ccc2nc(NC(=O)OC)[nH]c2c1
- T/C [3]: 139 % of control
- T/C [4]: 125 % of control
- T/C [5]: 143 % of control

SMILES: COC1C(O)C(C)OC(OC2CCC3(C)C(CCC4C3C(O)CC3(C)C(C5=CC(=O)OC5)CCC43O)C2)C1O (stereo not drawn)
- survivor count (dose: 40.0 mg/kg/injection, schedule: Q01DX001 (ip), vehicle: saline): 2 of 6
- survivor count (dose: 80.0 mg/kg/injection, schedule: Q01DX001 (ip), vehicle: saline): 0 of 6

SMILES: CCCNC(=O)c1ccc(NC(=O)Nc2ccc(C3=NCCN3)cc2)cc1NC(=O)Nc1ccc(C2=NCCN2)cc1
- T/C (dose: 300.0 mg/kg/injection, schedule: Q01DX Z (ip), vehicle: carboxymethylcellulose (CMC)): 142 % of control
- survivor count (dose: 500.0 mg/kg/injection, schedule: Q01DX Z (ip), vehicle: carboxymethylcellulose (CMC)): 0 of 6

SMILES: c1ccc(-c2nn(-c3ccccc3)[n+](-c3ccccc3)n2)cc1
- survivor count [3]: 0 of 6
- survivor count [5]: 0 of 6
- survivor count [7]: 0 of 6

SMILES: COC1=C(N2CC2)C(=O)c2ccccc2C1=O
- survivor count [5]: 4 of 6
- survivor count [7]: 0 of 6

SMILES: CC(C)(C)C(=O)C(Br)Br
- survivor count [11]: 1 of 3
- survivor count [12]: 0 of 3

SMILES: CCCCCCCC[n+]1cccc(C#N)c1
- survivor count [10]: 0 of 6
